“And” between values parts separate entries of the source, which are not always exact repeats. Identical values can stand only once. For some assays here: At least one read-out could not be matched to a standard name with certainty. For some assays here: For at least one compound, name, drawing or mass did not settle the structure. Some entries share one result that the patent states for a list of compounds.
What was measured:
Format in all cases: cell-based
[1] = tested on: H1 human embryonic stem cells; assay: Secondary screening with EGF/FGF4 in the absence of activin A (Example 4); conditions: 2.5 μM compound + 50 ng/ml EGF + 50 ng/ml FGF4, Wnt3a, no activin A, four days
Procedure: (§1) Clusters of H1 human embryonic stem cells were grown on reduced growth factor […]™ (Invitrogen; Cat #356231)-coated tissue culture plastic. Cells were passaged using collagenase (Invitrogen; Cat #Cat #17104-019) treatment and gentle scraping, washed to remove residual enzyme, and plated with even dispersal at a ratio of 1:1 (surface area) on reduced growth factor […]™-coated 96-well black plates (Packard ViewPlates; PerkinElmer; Cat #6005182) using volumes of 100 μl/well. Cells were allowed to attach as clusters and then recover log phase growth over a 1 to 3 day period, feeding daily with MEF conditioned medium supplemented with 8 ng/ml bFGF (R&D Systems; Cat #233-FB). Plates were maintained at 37° C., 5% CO2 in a humidified box throughout the duration of assay.
Stock concentrations for EGF (R&D Systems; Cat #236-EG) and FGF4 (R&D Systems; Cat #235-F4) were 250 ng/ml, each solubilized in PBS with 0.1% BSA (Sigma; Cat #A7888). Compounds were available as 5 mM stocks in 96-well plate format, solubilized in 100% DMSO (Sigma; Cat #D2650) and stored at −80° C. The compounds were further diluted to an intermediate concentration of 0.2 mM in 50 mM HEPES (Invitrogen; Cat #15630-080), 20% DMSO and stored at 4° C. All growth factors and inhibitors were prepared in a deep well, 96-well polypropylene plate, diluted to 5× intermediate stocks in DMEM:F12 base medium at the beginning of assay and stored at 4° C.
A secondary screening assay was conducted, testing in triplicate and feeding on alternate days over the four-day assay timeframe. Assays were initiated by aspirating culture medium from each well followed by three washes in PBS to remove residual growth factors and serum. Test volumes of 80 μl per well were added back containing DMEM:F12 base medium (Invitrogen; Cat #11330-032) supplemented with 0.625% FCS (HyClone; Cat #SH30070.03), 25 ng/ml Wnt3a (R&D Systems), and 3.125 μM compound plus 20 μl 5× stock of growth factors to yield a final concentration of 0.5% FCS, 20 ng/ml Wnt3a, and 2.5 μM compound plus 50 ng/ml EGF and 50 ng/ml FGF4 in the assay. Positive control wells (100 μl/well) contained the same base medium supplemented with 0.5% FCS, 20 ng/ml Wnt3a and 100 ng/ml activin A. Negative control wells (100 μl/well) contained the same base medium with 0.5% FCS and 20 ng/ml Wnt3a, omitting activin A.
On day 3, wells were aspirated and fed with 80 μl DMEM:F12 base medium supplemented with 2.5% FCS (HyClone) and 3.125 μM compound plus […] 5× stock of growth factors per well to yield a final concentration of 2% FCS and 2.5 μM compound (omitting Wnt3a) plus 50 ng/ml EGF and FGF4 in the assay. Positive control wells (100 μl/well) contained the same base medium supplemented with 2% FCS and 100 ng/ml activin A, omitting Wnt3a. […]

[2] = tested on: H1 human embryonic stem cells; assay: Secondary assay: compound combined with individual growth factors or small molecules, no activin A (Example 5, Table 4)
Procedure: as §1
Other agents tested were purchased as follows: BMP-7 (Sigma; Cat #B1434), LY294002 (Cayman; Cat 70920), PD98059, U0126, U0124 (EMD Biosciences; Cat #453710), muscimol (Tocris; Cat #0289), biuculline (Tocris; Cat #0130), sodium butyrate (Sigma; Cat #B5887). All growth factors were solubilized in PBS with 0.1% BSA (Sigma; Cat #A7888) and stored frozen at −80° C. Small molecules were solubilized in 100% DMSO (Sigma; Cat #D2650) and stored frozen at −80° C. The compounds were available as 5 mM stocks in 96-well plate format, solubilized in 100% DMSO and stored at −80° C. […]

[3] = tested on: H1 human embryonic stem cells; assay: Analogue screening in combination with only GDF-8, SOX17 (Example 21, Tables 18 and 19); parameters: Cell Number: % of positive control: tested at 2.5 µM; conditions: compound in combination with GDF8;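 further: cells treated with 200 ng/ml GDF-8 in DMEM:F12 with FCS over four days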
Procedure: Briefly, clusters of H1 human embryonic stem cells were grown on reduced growth factor Matrigel™ (Invitrogen; Cat #356231)-coated tissue culture plastic. Cells were passaged using collagenase (Invitrogen; Cat #17104-019) treatment and gentle scraping, washed to remove residual enzyme, and plated with even dispersal at a ratio of 1:1 (surface area) on reduced growth factor […]™ (BD Biosciences; Cat #356231)-coated 96-well black plates (Packard ViewPlates; PerkinElmer; Cat #6005182) using volumes of 100 μl/well. Cells were allowed to attach and then recover log phase growth over a 1 to 3 day time period, feeding daily with MEF conditioned medium supplemented with 8 ng/ml bFGF (R&D Systems; Cat #233-FB). Plates were maintained at 37° C., 5% CO2 in a humidified box throughout the duration of assay.
Screening was conducted using a library of the analogue compounds. Compounds from this library were made available as 5 mM stocks in 96-well plate format, solubilized in 100% DMSO (Sigma; Cat #D2650) and stored at −80° C. The library compounds were further diluted to an intermediate concentration of 0.2 mM in 50 mM HEPES (Invitrogen; Cat #15630-080), 20% DMSO and stored at 4° C. Test conditions were performed in triplicate, feeding on alternating days over a four-day assay period. […]

## CCN1CC(=O)NCCCc2cncc(c2)-c2ncnc(n2)Nc2cc(Cl)cc(c2)C1 [Compound 35, 10-Chloro-14-ethyl-3,5,7,14,17,23,27-heptaazatetracyclo[19.3.1.1˜2,6˜0.1˜8,12]Theptacosa-1(25), 2(27), 3,5,8(26), 9,11,21,23-nonaen-16-one]
[1]
  Cell Number: % of positive control: 127.20 % of positive control and 97.68 % of positive control
  Cell Number: Average Total Cell Number: 23823 and 18294
  Sox17 Expression: % of positive control: 13.69 % of positive control and 10.70 % of positive control
  Sox17 Expression: Average Total Intensity: 2.54E+07 and 1.99E+07

## PDGF-A: growth factor purchased from R&D Systems
[2]; growth factor 50 ng/ml combined with 2.5 μM compound and Wnt3a
  increase in SOX17 expression (% of the activin A/Wnt3a control): 10-25%

## O=c1cc(N2CCOCC2)oc2c(-c3ccccc3)cccc12 [LY294002, reference compound]
[2]; agent combined with 2.5 μM compound and Wnt3a
  effect on SOX17 expression: inhibited or had negligible effects on SOX17 expression

## O=C1CCN2CCN(CC2)Cc2cc(Cl)cc(c2)Nc2ncnc(n2)-c2cncc(c2)CCCN1 [Compound 34, 5-Chloro-1,8,10,12,16,22,26,32-octaazapentacyclo[24.2.2.1˜3.7˜0.1˜9,13˜0.1˜14.18˜]tritriaconta-3(33), 4,6,9(32), 10,12,14(31), 15,17-nonaen-23-one]
[3]; four assay plates
  Cell Number: Average Total Cell Number: 7416 and 6974 and 4889
[3]; relative to Activin A/Wnt3a of the same plate
  Cell Number: % of positive control: 53.2% and 44.0% and 30.8%
